According to paper PMC12905343:
These are yes or no findings as the source states them, for the method shown. In cells and extracts the contact can be indirect. Some binding calls cover weakened binding; strength is not graded here. Sequences can lack the tags named with a protein.

Key:
HA-INSIG1(H150R) (human) = target: T1, HA-INSIG1(H150R) (human) (UniProt O15503); assay: co-IP; HepG2 cells co-transfected with HA-INSIG1 (WT or H150R) and Flag-SCAP; lysate incubated with HA antibody on Protein A/G magnetic beads, 4 °C, 2 h; washed with PBST pH 7.4; eluted with 0.15 M glycine pH 2.8; western blot with anti-HA and anti-FLAG
T1 sequence: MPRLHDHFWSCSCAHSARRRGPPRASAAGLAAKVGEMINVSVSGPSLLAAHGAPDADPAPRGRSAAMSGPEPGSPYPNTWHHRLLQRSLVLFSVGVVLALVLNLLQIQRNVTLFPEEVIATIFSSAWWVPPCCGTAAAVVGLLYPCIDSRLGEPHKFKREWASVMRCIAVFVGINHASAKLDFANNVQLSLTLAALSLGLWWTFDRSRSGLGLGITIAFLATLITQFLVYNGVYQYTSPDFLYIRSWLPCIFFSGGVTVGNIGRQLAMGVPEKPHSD

HA-INSIG1(WT) (human) = target: T2, HA-INSIG1(WT) (human) (UniProt O15503); assay: as above
T2 sequence: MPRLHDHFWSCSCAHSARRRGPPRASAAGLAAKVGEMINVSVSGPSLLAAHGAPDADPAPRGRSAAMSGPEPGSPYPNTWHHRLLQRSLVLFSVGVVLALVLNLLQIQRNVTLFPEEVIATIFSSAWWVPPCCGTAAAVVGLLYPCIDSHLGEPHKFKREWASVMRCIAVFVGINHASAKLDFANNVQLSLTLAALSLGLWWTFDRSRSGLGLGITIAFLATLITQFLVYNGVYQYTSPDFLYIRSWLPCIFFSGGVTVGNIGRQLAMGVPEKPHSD

- binding (HA-INSIG1(H150R) (human)): no binding
- binding (HA-INSIG1(WT) (human)): binds
B1: FLAG-SCAP (protein, UniProt Q12770-1 1-1279)
chain: MTLTERLREKISRAFYNHGLLCASYPIPIILFTGFCILACCYPLLKLPLPGTGPVEFTTPVKDYSPPPVDSDRKQGEPTEQPEWYVGAPVAYVQQIFVKSSVFPWHKNLLAVDVFRSPLSRAFQLVEEIRNHVLRDSSGIRSLEELCLQVTDLLPGLRKLRNLLPEHGCLLLSPGNFWQNDWERFHADPDIIGTIHQHEPKTLQTSATLKDLLFGVPGKYSGVSLYTRKRMVSYTITLVFQHYHAKFLGSLRARLMLLHPSPNCSLRAESLVHVHFKEEIGVAELIPLVTTYIILFAYIYFSTRKIDMVKSKWGLALAAVVTVLSSLLMSVGLCTLFGLTPTLNGGEIFPYLVVVIGLENVLVLTKSVVSTPVDLEVKLRIAQGLSSESWSIMKNMATELGIILIGYFTLVPAIQEFCLFAVVGLVSDFFLQMLFFTTVLSIDIRRMELADLNKRLPPEACLPSAKPVGQPTRYERQLAVRPSTPHTITLQPSSFRNLRLPKRLRVVYFLARTRLAQRLIMAGTVVWIGILVYTDPAGLRNYLAAQVTEQSPLGEGALAPMPVPSGMLPPSHPDPAFSIFPPDAPKLPENQTSPGESPERGGPAEVVHDSPVPEVTWGPEDEELWRKLSFRHWPTLFSYYNITLAKRYISLLPVIPVTLRLNPREALEGRHPQDGRSAWPPPGPIPAGHWEAGPKGPGGVQAHGDVTLYKVAALGLATGIVLVLLLLCLYRVLCPRNYGQLGGGPGRRRRGELPCDDYGYAPPETEIVPLVLRGHLMDIECLASDGMLLVSCCLAGHVCVWDAQTGDCLTRIPRPGRQRRDSGVGSGLEAQESWERLSDGGKAGPEEPGDSPPLRHRPRGPPPPSLFGDQPDLTCLIDTNFSAQPRSSQPTQPEPRHRAVCGRSRDSPGYDFSCLVQRVYQEEGLAAVCTPALRPPSPGPVLSQAPEDEGGSPEKGSPSLAWAPSAEGSIWSLELQGNLIVVGRSSGRLEVWDAIEGVLCCSSEEVSSGITALVFLDKRIVAARLNGSLDFFSLETHTALSPLQFRGTPGRGSSPASPVYSSSDTVACHLTHTVPCAHQKPITALKAAAGRLVTGSQDHTLRVFRLEDSCCLFTLQGHSGAITTVYIDQTMVLASGGQDGAICLWDVLTGSRVSHVFAHRGDVTSLTCTTSCVISSGLDDLISIWDRSTGIKFYSIQQDLGCGASLGVISDNLLVTGGQGCVSFWDLNYGDLLQTVYLGKNSEAQPARQILVLDNAAIVCNFGSELSLVYVPSVLEKLD
